Measured values taken from publication PMC12147132 (2025).

Tested on: adenosine deaminase (ADA)
Test: ITC
Conditions: ADA by itself, no adenosine, ADA possibly denatured (Figure S4); circuits run in 20 mM Tris-HCl, 20 mM magnesium chloride; pH and temperature not shown; commercial protein; folded or branched DNA

“ATAACGCATTTTGTTATGCGGAGGAAGGTAT / ATACCTGGGGGAGTATTAACATGTTCCATCTT [L1+L2 (split adenosine aptamer subunits a1, a2)]”: no binding.

The exact form of at least one protein or probe is not confirmed. No signal at the amounts used counts as a negative.
